The list shows a part of the results. Further columns of the screen follow, without active or inactive calls. Compounds called inactive in the main read-out are mostly missing here. Potencies come from curve fits of mixed quality, noted in brackets.
Assay: qHTS Assay for Modulators of Lamin A Splicing
Settings: HeLa LMNA splicing GFP/RFP minigene ratio, 48 h
Summary of the method: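 S3 HeLa cells stably expressing lamin A-EGFP splicing minigene plus DsRed2, 600 cells/well, 48 h compound exposure at 37C. Laser-scanning cytometry; analysed as GFP (500-530 nm)/RFP (575-640 nm) total intensity ratio; 0.5% DMSO vehicle.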

[1] = measured here: RFP viability control channel
[2] = measured here: GFP splicing reporter channel

Compound	AC50 [1]	AC50 [2]
C(=C\c1nnc2c3ccccc3ncn12)/c1ccccc1	15.8 µM [rising, partial curve]	–
CCCn1c(SCC(=O)Nc2cccc(Cl)c2Cl)n[nH]c1=O	–	0.02 µM [rising, partial curve, poor fit]
Cn1cc(CN2CCC[C@H]2CO)c(-c2cccc(Cl)c2)n1	5.62 µM [rising, single point]	–
CCCC1(c2ccccc2)NC(=O)N(CC(=O)c2[nH]c(C)c(C(=O)OCC)c2C)C1=O (centres undefined)	35.5 µM [falling, single point]	35.5 µM [falling, partial curve]
Cn1c(-c2c(N)n(C3CCCC3)c3nc4ccccc4nc23)nc2ccccc21	22.4 µM [rising, partial curve]	14.1 µM [rising, partial curve]
CCc1oc2ccccc2c1C(=O)c1cc(I)c(O)c(I)c1	35.5 µM [rising, partial curve, poor fit]	14.1 µM [rising, single point]
CCN1CCN(C(c2ccccc2F)c2c(O)cc(C)n(CCOC)c2=O)CC1 (centres undefined)	0.501 µM [rising, full curve, poor fit]	0.282 µM [rising, partial curve, poor fit]
CCC(=O)N1CCc2cc(CNS(=O)(=O)c3ccc(Br)s3)ccc21	–	0.501 µM [rising, single point]
CCc1c(C)sc2c1CCN(C(=O)Nc1cc(C)ccc1OC)C2c1ccc(F)cc1 (centres undefined)	4.47 µM [rising, full curve, poor fit]	–
CC(C)(C)c1ccc(S(=O)(=O)N2CCCCC2C(=O)NCc2ccccn2)cc1 (centres undefined)	12.6 µM [rising, partial curve]	–
COc1ccc(/C=C2\CCc3ccccc3C2=O)cc1OC	11.2 µM [rising, partial curve]	2.82 µM [rising, full curve]
CCN(CC)S(=O)(=O)c1ccc(C(=O)NCc2ccc3[nH]c4c(c3c2)CCCC4)cc1	1.12 µM [rising, full curve]	–
Cc1ccc(C(C)C)cc2c(C)ccc1-2	35.5 µM [falling, single point]	–
CN(C)c1nc(N(C)C)n(C(=O)c2ccc(F)cc2)n1	0.0398 µM [rising, full curve, poor fit]	–
COc1cccc(N2C(C(C)=O)=NN(c3ccccc3)C2c2ccc(N3CCOCC3)cc2)c1 (centres undefined)	35.5 µM [rising, single point]	35.5 µM [rising, single point]
S=C1NC2=C(CCCC2=C2SCCS2)C(c2ccccc2)N1 (centres undefined)	–	25.1 µM [falling, partial curve, poor fit]
O=C(CCNC(=O)Cn1ccc2ccccc2c1=O)NCCCN1CCN(c2ccccc2F)CC1	0.501 µM [falling, full curve, poor fit]	0.631 µM [falling, full curve, poor fit]
COc1cc(/C=C(\NC(=O)c2ccccc2)C(=O)NCC(=O)O)c([N+](=O)[O-])cc1OC	–	2.51 µM [rising, partial curve, poor fit]

Compound	AC50 [1]	AC50 [2]
CCOc1ccc(C(=O)OCc2nnc(-c3cccs3)o2)cc1OC	–	17.8 µM [rising, single point]
COc1ccc(-c2noc(CCCc3ccccc3)n2)cc1OC	12.6 µM [rising, partial curve]	–
O=C(NNC1CC(=O)N(c2ccccc2)C1=O)c1cccnc1 (centres undefined)	17.8 µM [falling, partial curve]	–
CC(C)c1ccc(C2CC(c3ccc(Br)cc3)=NN2C(N)=S)cc1 (centres undefined)	7.94 µM [rising, partial curve, poor fit]	–
Cc1ccc(C(C(=O)NC2CCCCC2)N(Cc2ccccc2)C(=O)Cc2c[nH]c3ccccc23)o1 (centres undefined)	14.1 µM [rising, partial curve]	–
CC(NC(=O)COC(=O)/C(=C/c1cccs1)c1cccs1)c1ccccc1 (centres undefined)	17.8 µM [rising, partial curve]	2.51 µM [rising, partial curve, poor fit]
CCOc1ccc(NC(=O)CC2C(=O)N(C)C(=S)N2CCCc2ccccc2)cc1 (centres undefined)	25.1 µM [rising, single point]	22.4 µM [rising, single point]
O=C1CC(N2CCN(c3ccc(Cl)c(Cl)c3)CC2)C(=O)N1 (centres undefined)	11.2 µM [rising, partial curve]	–
COc1ccc(C)cc1-n1c(=O)c2ccccc2c2ccccc2c1=O	31.6 µM [falling, single point]	12.6 µM [falling, single point]
c1ccc(N2N=C(c3cccs3)CC2c2ccco2)cc1 (centres undefined)	35.5 µM [rising, single point]	4.47 µM [rising, partial curve]
CN(C)c1ccc(C(C#N)c2ccc(Cl)cc2)nn1 (centres undefined)	–	3.55 µM [rising, partial curve, poor fit]
CC(C)NC(=O)/C(C#N)=C/c1cccc(NC(=O)c2ccccc2Cl)c1	35.5 µM [rising, single point]	–
CCOC(=O)c1cccc(NC(=O)CSc2nc3cccnc3n2C)c1	7.08 µM [rising, partial curve]	5.62 µM [rising, full curve, poor fit]
CCn1c(/C(C#N)=C/c2ccccc2Cl)nc2ccccc21	–	35.5 µM [falling, single point]
Cc1ccc2nc(SCc3nnc(-c4ccccc4Br)o3)[nH]c2c1	0.1 µM [falling, partial curve, poor fit]	0.794 µM [falling, single point]
CCc1nc(SCc2cc(=O)c3cc(C)ccc3[nH]2)n[nH]1	–	0.562 µM [rising, full curve]
COC(=O)c1cc(=O)n(Cc2ccco2)c(=Nc2ccc(F)c(Cl)c2)s1	35.5 µM [falling, single point]	22.4 µM [falling, partial curve]

Record cards, as listed above.
`COC(=O)c1cc(=O)n(Cc2ccco2)c(=Nc2ccc(F)c(Cl)c2)s1` reads AC50 [1]: 35.5 µM [falling, single point]; AC50 [2]: 22.4 µM [falling, partial curve]
`CCOc1ccc(C(=O)OCc2nnc(-c3cccs3)o2)cc1OC` reads AC50 [2]: 17.8 µM [rising, single point]

— PubChem BioAssay AID1487 (National Center for Advancing Translational Sciences (NCATS), 2009)
